Patent US7456023B2, “Reagent for luminescence optical determination of an analyte” (Roche Diagnostics Operations, Inc., priority 2000, dated 2008)

Experiment: O2 sensitivity of the donor dye in sensor films by phase shift of the luminescence (45 kHz, blue LED, OG 570)
Assay type: physicochemical

C[Si](C)(C)CCCS(=O)(=O)[O-].C[Si](C)(C)CCCS(=O)(=O)[O-].[Ru+2].c1ccc(-c2ccnc3c2ccc2c(-c4ccccc4)ccnc23)cc1.c1ccc(-c2ccnc3c2ccc2c(-c4ccccc4)ccnc23)cc1.c1ccc(-c2ccnc3c2ccc2c(-c4ccccc4)ccnc23)cc1 [Ru(diphphen)3TMS2, Ru(II)-tris-(4,7-diphenyl-1,10-phenanthroline) (3-trimethylsilyl)-1-propane sulphonate]
Phase angle (donor dye embedded in polyacryl nitrile nanoparticles in D4 film, dry, N2): 58.2°
Phase angle (donor dye embedded in polyacryl nitrile nanoparticles in D4 film, dry, air): 57.4°;
Phase angle (donor dye embedded in polyacryl nitrile nanoparticles in D4 film, water, O2 free (SO3^2−)): 58.6°
Phase angle (donor dye embedded in polyacryl nitrile nanoparticles in D4 film, water, air saturated): 56.8°
Phase angle (donor dye unprotected in acceptor phase (polymer D4 film), dry, N2): 58.3°
Phase angle (donor dye unprotected in acceptor phase (polymer D4 film), dry, air): 55.4°
Phase angle (donor dye unprotected in acceptor phase (polymer D4 film), water, N2 saturated): 58.4°
Phase angle (donor dye unprotected in acceptor phase (polymer D4 film), water, air saturated): 53.5°
